Drawing on the supplement of paper PMC6411743, this text covers NP40-soluble protein abundance for 37 targets.

Chains of the proteins cited; added tags and fusions are not shown. Lines headed by an entry give the natural chain unless they say otherwise; changes in a name come on top.
UniProt Q969X5: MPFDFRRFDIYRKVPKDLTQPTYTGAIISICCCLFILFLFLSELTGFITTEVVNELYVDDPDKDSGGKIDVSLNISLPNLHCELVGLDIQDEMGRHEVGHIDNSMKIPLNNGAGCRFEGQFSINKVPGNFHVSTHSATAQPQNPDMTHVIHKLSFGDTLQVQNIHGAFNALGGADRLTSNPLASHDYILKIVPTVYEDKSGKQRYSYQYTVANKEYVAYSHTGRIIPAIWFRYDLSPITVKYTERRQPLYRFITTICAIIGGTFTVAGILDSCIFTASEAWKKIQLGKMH
UniProt Q969R5, whole entry: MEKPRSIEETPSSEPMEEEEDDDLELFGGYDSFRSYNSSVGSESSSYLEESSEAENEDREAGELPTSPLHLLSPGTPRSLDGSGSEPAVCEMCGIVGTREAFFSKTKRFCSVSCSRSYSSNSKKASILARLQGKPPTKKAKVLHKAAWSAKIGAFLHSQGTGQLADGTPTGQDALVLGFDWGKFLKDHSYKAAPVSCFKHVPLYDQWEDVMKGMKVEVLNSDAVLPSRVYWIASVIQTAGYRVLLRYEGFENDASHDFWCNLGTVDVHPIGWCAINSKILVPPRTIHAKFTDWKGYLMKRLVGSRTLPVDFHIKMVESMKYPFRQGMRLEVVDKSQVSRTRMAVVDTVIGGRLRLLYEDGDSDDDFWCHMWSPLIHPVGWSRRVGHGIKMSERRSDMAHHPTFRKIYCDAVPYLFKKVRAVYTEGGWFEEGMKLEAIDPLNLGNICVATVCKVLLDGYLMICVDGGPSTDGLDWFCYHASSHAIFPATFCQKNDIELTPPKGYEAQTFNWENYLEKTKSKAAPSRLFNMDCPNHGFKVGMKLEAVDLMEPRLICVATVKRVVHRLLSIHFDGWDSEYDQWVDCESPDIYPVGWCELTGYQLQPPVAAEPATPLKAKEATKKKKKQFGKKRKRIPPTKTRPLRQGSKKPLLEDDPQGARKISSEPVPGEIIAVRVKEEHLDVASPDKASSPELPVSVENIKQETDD
UniProt Q92610: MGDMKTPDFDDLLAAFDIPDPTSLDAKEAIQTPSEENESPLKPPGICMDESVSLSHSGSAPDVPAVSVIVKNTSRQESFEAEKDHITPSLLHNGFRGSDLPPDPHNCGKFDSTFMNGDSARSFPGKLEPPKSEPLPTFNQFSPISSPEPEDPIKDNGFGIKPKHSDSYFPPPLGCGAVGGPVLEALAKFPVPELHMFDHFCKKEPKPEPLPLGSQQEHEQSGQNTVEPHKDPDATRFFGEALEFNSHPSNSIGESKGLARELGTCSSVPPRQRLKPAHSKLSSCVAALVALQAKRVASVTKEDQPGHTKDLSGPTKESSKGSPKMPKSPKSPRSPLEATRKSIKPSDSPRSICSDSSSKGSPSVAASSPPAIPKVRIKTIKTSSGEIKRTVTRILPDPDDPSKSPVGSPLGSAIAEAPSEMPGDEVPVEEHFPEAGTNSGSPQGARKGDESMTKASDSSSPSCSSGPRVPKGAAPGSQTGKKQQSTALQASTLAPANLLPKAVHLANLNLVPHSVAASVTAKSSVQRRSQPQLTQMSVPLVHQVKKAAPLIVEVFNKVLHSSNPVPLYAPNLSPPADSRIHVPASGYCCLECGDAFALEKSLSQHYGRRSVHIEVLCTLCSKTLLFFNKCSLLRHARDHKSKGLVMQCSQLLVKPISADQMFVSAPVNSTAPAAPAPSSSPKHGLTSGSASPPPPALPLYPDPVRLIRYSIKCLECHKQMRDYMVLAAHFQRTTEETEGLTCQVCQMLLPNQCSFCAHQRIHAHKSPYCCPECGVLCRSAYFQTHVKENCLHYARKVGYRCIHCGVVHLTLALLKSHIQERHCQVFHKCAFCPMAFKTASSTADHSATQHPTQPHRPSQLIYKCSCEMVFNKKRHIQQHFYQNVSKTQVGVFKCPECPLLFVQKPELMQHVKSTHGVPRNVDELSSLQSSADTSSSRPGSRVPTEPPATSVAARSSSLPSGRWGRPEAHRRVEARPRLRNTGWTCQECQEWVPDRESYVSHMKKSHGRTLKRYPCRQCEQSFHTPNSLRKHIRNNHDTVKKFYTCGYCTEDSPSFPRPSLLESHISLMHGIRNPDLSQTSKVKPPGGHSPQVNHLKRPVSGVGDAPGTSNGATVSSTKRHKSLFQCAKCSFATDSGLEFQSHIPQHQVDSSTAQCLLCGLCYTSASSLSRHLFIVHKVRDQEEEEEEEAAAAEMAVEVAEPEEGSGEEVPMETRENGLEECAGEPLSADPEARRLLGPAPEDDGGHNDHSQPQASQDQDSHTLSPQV
UniProt Q92621: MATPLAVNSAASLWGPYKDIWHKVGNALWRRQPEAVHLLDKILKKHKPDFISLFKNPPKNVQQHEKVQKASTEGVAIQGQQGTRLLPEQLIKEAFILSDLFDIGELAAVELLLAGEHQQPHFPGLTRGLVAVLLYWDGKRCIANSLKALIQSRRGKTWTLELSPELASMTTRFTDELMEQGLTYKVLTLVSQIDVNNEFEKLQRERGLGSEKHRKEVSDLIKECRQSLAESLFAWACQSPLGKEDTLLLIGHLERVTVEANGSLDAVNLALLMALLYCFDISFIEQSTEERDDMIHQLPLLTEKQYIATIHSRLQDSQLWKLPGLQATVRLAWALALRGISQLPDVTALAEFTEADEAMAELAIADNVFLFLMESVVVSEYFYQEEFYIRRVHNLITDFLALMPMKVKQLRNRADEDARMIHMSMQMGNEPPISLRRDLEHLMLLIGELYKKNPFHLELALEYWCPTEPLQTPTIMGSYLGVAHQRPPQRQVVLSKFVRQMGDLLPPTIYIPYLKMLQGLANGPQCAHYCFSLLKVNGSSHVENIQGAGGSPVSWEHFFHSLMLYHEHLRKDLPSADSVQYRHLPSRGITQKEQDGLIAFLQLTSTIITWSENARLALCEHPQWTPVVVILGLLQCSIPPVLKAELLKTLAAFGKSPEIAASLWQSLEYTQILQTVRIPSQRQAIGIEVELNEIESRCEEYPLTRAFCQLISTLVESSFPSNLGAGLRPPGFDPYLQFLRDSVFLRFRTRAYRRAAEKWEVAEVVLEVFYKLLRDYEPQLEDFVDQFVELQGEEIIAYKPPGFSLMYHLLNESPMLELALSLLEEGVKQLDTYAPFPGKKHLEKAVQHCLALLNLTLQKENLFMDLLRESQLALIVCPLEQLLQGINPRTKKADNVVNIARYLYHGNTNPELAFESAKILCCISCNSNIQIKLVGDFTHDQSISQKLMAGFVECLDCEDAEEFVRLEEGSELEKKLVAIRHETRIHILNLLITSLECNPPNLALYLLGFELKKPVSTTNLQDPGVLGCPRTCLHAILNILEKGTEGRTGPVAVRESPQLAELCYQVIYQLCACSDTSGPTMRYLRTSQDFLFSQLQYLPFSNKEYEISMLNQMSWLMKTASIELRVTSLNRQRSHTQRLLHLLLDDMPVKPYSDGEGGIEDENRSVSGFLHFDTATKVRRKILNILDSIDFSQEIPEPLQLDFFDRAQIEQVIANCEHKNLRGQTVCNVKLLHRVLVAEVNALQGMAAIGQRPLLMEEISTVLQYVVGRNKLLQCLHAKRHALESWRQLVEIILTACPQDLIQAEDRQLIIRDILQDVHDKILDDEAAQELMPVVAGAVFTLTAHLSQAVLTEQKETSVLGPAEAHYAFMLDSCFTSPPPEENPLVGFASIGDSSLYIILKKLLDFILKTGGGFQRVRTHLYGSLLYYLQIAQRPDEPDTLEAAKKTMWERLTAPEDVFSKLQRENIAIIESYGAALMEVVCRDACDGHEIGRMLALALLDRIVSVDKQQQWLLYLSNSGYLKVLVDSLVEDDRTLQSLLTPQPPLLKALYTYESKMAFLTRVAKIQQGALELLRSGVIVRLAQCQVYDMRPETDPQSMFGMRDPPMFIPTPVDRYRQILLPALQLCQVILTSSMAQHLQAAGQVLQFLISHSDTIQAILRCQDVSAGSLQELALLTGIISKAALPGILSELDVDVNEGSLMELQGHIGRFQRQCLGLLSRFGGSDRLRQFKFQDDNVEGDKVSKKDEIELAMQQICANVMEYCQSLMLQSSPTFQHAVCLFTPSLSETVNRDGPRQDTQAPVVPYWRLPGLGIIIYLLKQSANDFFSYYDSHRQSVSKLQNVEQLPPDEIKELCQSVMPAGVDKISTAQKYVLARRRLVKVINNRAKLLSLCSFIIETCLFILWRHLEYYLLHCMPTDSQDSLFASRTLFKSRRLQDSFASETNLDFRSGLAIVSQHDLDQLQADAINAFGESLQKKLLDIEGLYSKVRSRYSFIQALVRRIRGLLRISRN
UniProt Q8WWH5: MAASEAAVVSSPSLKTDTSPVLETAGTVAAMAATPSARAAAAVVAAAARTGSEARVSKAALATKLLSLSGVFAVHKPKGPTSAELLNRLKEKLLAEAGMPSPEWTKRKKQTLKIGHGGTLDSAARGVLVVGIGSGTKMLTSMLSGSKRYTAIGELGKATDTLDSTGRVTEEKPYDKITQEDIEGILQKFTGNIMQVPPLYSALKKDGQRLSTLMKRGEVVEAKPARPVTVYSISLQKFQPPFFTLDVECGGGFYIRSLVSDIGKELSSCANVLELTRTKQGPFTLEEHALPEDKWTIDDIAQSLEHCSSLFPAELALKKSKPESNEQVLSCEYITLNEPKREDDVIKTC
UniProt Q93034, whole entry: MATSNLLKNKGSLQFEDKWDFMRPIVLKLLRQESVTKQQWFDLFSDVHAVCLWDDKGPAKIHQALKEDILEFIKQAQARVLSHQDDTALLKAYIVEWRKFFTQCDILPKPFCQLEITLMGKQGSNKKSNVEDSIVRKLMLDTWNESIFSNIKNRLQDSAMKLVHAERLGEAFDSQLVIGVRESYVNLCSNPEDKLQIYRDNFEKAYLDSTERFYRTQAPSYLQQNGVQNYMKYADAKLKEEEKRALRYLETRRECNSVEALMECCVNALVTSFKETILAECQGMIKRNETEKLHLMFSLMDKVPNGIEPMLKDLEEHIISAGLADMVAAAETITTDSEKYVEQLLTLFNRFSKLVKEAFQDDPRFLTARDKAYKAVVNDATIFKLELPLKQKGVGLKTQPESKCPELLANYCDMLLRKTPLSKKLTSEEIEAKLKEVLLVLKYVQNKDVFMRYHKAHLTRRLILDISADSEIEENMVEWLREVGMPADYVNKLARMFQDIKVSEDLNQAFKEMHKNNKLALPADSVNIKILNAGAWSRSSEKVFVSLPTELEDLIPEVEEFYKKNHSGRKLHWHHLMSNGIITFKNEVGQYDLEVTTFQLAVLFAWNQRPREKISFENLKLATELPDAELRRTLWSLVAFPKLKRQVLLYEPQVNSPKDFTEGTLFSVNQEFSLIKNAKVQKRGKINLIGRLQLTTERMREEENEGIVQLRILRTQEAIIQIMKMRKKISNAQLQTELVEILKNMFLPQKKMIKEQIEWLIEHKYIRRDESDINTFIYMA
UniProt Q92572: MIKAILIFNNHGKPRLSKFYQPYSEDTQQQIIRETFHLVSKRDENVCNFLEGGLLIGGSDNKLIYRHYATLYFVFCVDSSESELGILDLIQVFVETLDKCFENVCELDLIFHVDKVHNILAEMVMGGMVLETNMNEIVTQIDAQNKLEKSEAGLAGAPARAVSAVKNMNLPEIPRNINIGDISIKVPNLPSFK
UniProt Q8WZ82: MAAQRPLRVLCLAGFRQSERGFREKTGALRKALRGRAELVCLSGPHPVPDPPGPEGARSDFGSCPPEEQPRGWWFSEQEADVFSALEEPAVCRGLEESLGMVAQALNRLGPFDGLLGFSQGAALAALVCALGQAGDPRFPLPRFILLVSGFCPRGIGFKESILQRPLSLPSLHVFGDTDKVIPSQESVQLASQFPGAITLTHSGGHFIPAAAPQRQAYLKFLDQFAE
UniProt Q96AX2: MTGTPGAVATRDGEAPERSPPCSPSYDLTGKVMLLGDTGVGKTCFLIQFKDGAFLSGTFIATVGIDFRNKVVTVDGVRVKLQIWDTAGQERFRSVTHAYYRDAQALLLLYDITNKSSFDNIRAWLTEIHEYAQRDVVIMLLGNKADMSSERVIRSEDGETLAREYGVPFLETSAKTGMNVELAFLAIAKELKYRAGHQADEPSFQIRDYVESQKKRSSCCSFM
UniProt Q8TCF1: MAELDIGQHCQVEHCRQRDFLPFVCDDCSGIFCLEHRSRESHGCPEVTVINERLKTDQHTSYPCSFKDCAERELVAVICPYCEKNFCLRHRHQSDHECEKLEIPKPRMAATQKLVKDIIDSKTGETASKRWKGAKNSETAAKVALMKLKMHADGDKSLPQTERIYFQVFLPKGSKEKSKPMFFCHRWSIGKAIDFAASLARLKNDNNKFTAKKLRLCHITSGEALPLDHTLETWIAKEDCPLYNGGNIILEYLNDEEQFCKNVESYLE
UniProt Q92530: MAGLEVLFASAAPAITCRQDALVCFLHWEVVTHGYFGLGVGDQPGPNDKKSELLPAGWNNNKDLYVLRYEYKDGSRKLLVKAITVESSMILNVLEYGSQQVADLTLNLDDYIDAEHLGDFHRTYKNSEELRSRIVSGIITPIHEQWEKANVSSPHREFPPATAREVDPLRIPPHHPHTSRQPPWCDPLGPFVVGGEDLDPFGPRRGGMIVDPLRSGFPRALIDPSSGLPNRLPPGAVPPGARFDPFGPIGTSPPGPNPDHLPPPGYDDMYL

± gives the standard deviation of the averaged measurements. This is a selection; strong and weak results do not stand in their true shares. Small differences around the control level are noise.

Compound in one experiment: Nc1ncnc2c1ncn2[C@@H]1O[C@H](COP(=O)(O)OP(=O)(O)OP(=O)(O)O)[C@@H](O)[C@H]1O [adenosine triphosphate]
In words: NP40-soluble protein abundance relative to vehicle (solubility fold change) (ratio); higher = more soluble protein in presence of ATP. Conditions: concentration: 0.1mM. An outline of the steps: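 Values are fold changes against the detergent-processed vehicle, based on vsn-normalised intensities. Jurkat crude lysate was treated at eight concentrations from 0.1 to 10 mM (10 min at room temperature, then 3 min at 37 °C), solubilised with 0.8% NP40 and benzonase, ultracentrifuged and analysed by TMT-labelled LC-MS/MS over three independent experiments.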
ERGIC1 (UniProt Q969X5): the NP40-soluble protein abundance is 1.04 ± 0.073. The same measure, in the same setting: the same measure for ZUP1 (UniProt Q96AP4): 1.03 ± 0.029.

As for NEK9 (UniProt Q8TD19), the NP40-soluble protein abundance was determined as 1.02 ± 0.048. Take UniProt Q93074 and related entries: the NP40-soluble protein abundance was 1.02 ± 0.054. For SPPL2B (UniProt Q8TCT7), the NP40-soluble protein abundance is 0.961 ± 0.077. DTD1 (UniProt Q8TEA8): the NP40-soluble protein abundance worked out at 1 ± 0.017. The same measure, in the same setting: in the case of L3MBTL2 (UniProt Q969R5) it was 1.03 ± 0.04. Take ZNF592 (UniProt Q92610): the NP40-soluble protein abundance worked out at 0.961 ± 0.069. On the same count and under the same terms, the same measure for WASF1 (UniProt Q92558): 0.9718 ± 0.0027; for DDX1 (UniProt Q92499): 1.05 ± 0.063.

Still in this experiment, the particulars now being: concentration: 0.5mM.
On to LRRC8C (UniProt Q8TDW0), for which the NP40-soluble protein abundance stood at 1.14 ± 0.093. For the target ITFG2 (UniProt Q969R8), the NP40-soluble protein abundance came out at 0.952 ± 0.055. As for MYST3 (UniProt Q92794), the NP40-soluble protein abundance came to 1.03 ± 0.078.

For the target NUP205 (UniProt Q92621), the NP40-soluble protein abundance was 1.04 ± 0.053. Turning to TRUB1 (UniProt Q8WWH5), the NP40-soluble protein abundance came to 0.998 ± 0.023. On to CUL5 (UniProt Q93034), for which the NP40-soluble protein abundance was 1.05 ± 0.062. For the target CCDC12 (UniProt Q8WUD4), the NP40-soluble protein abundance came out at 0.774 ± 0.22. The same measure, in the same setting: the same measure for UniProt Q8TCA0 and related entries: 0.883 ± 0.057; for PHIP (UniProt Q8WWQ0): 1.1 ± 0.02; for UniProt Q92572: 0.972 ± 0.02.

For the target OVCA2 (UniProt Q8WZ82), the NP40-soluble protein abundance stood at 0.988 ± 0.2.

For the target UBLCP1 (UniProt Q8WVY7), the NP40-soluble protein abundance stood at 0.989 ± 0.054. Consider UniProt Q96AX2 and related entries, for which the NP40-soluble protein abundance is 1.04 ± 0.11.

Regarding GCDH (UniProt Q92947), the NP40-soluble protein abundance came to 0.979 ± 0.01. Still for that read-out and setting: the same measure for UniProt Q8TD26 and related entries: 1.11 ± 0.071. Still for that read-out and setting: the same measure for UniProt Q8TDZ2 and related entries: 0.982 ± 0.027.

For the target TFB1M (UniProt Q8WVM0), the NP40-soluble protein abundance is 1.02 ± 0.032. Same read-out and setting: the same measure for SECISBP2L (UniProt Q93073): 0.922 ± 0.13; for CHAC2 (UniProt Q8WUX2): 0.95 ± 0.091. On the same count and under the same terms, the same measure for UniProt Q8TCF1 and related entries: 0.943 ± 0.037; for NUDT8 (UniProt Q8WV74): 0.923 ± 0.066. Still for that read-out and setting: the same measure for UniProt Q96AY2 and related entries: 0.976 ± 0.015; for UniProt Q8WUQ7 and related entries: 0.947 ± 0.038; for UniProt Q8TF46 and related entries: 1.01 ± 0.12.

Consider UniProt Q8WYQ5 and related entries, for which the NP40-soluble protein abundance is 1.15 ± 0.12. On to UniProt Q92530 and related entries, for which the NP40-soluble protein abundance is 0.916 ± 0.068.

Turning to UBASH3B (UniProt Q8TF42), the NP40-soluble protein abundance amounted to 1.04 ± 0.051. On to ERGIC1 (UniProt Q969X5), for which the NP40-soluble protein abundance worked out at 1.08 ± 0.07.

Consider ZUP1 (UniProt Q96AP4), for which the NP40-soluble protein abundance was found to be 0.976 ± 0.066. Same read-out and setting: the same measure for NEK9 (UniProt Q8TD19): 1 ± 0.015. As for UniProt Q93074 and related entries, the NP40-soluble protein abundance was found to be 1.03 ± 0.041. The same measure, in the same setting: the same measure for SPPL2B (UniProt Q8TCT7): 0.886 ± 0.1; for DTD1 (UniProt Q8TEA8): 0.992 ± 0.027.

For L3MBTL2 (UniProt Q969R5), the NP40-soluble protein abundance came out at 1.02 ± 0.068.

With ZNF592 (UniProt Q92610), the NP40-soluble protein abundance is 0.977 ± 0.072. The same measure, in the same setting: the same measure for WASF1 (UniProt Q92558): 0.985 ± 0.062. With DDX1 (UniProt Q92499), the NP40-soluble protein abundance turned out to be 1.04 ± 0.069.
